The results are deposited in PubChem (AID1053133; Broad Institute, 2014).

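Plate-reader measure of the Venus reporter marking one vaccinia stage in infected cells (the cell line is not named here); read time unknown. The test concentration is not given here. Percent change in Venus reporter signal; lower (more negative) values mean stronger inhibition of that viral stage.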

Values are in %. The controls that fix the scale are not given here. Common to all entries: measured here: Venus reporter, other viral stage. This is a side read-out of the assay, for part of the compounds, not drawn at random.

| compound | activity change (Venus) (%) |
|---|---|
| `O=C(C[C@H]1CC[C@@H]2[C@H](COC[C@H](O)CN2C(=O)Nc2ccc(Cl)c(Cl)c2)O1)NCc1ccc(Cl)cc1` | -38.72 |
| `Cc1ccc(S(=O)(=O)N[C@@H]2CC[C@H](CCn3cc(-c4cccc(F)c4)nn3)O[C@@H]2CO)cc1` | -34.19 |
| `CO[C@@H]1CN(C)C(=O)c2cc(NC(=O)c3nc4ccccc4s3)ccc2OC[C@@H](C)N(Cc2cccnc2)C[C@H]1C` | -26.51 |
| `C[C@H](CO)N1C[C@H](C)[C@@H](CN(C)Cc2ccc(C(F)(F)F)cc2)Oc2ccc(NC(=O)c3ccncc3)cc2CC1=O` | -32.86 |
| `C[C@H]1CN([C@@H](C)CO)S(=O)(=O)c2ccc(C#Cc3ccc(F)cc3)cc2O[C@@H]1CN(C)S(C)(=O)=O` | -64.89 |
| `O=C(c1cccc(F)c1)N1CC(=O)N2[C@H](CO)[C@H](c3ccc(C#Cc4ccc(F)cc4)cc3)[C@H]2C1` | -75.09 |
| `COc1ccc(S(=O)(=O)N2CC[C@H]3[C@@H](CO)N(C)c4ccc(-c5ccc(F)cc5)cc4[C@H]32)cc1` | -40.37 |
| `CC(=O)N1CCCCN2[C@@H](CO)[C@@H](c3ccc(C#Cc4ccccc4F)cc3)[C@@H]2C1` | -54.58 |
| `COc1cccc(NC(=O)N(C)C[C@H]2Oc3ncc(/C=C/c4ccccc4)cc3C(=O)N([C@H](C)CO)C[C@@H]2C)c1` | -31.18 |
| `C[C@@H]1CN([C@@H](C)CO)C(=O)c2c(c3ccccc3n2C)-c2ccccc2CO[C@H]1CN(C)C(=O)Cc1ccccc1` | -38.39 |
| `O=C(Nc1ccc(F)cc1)N1CC(=O)N2[C@H](C1)[C@H](c1ccc(C#Cc3cccnc3)cc1)[C@@H]2CO` | -26.75 |
| `C[C@@H]1CN([C@@H](C)CO)C(=O)c2c(c3ccccc3n2C)-c2ccccc2CO[C@@H]1CN(C)S(=O)(=O)c1ccccc1F` | -41.84 |
| `C[C@H]1CN([C@@H](C)CO)C(=O)c2cccc(NC(=O)Nc3ccc(C(F)(F)F)cc3)c2O[C@H]1CN(C)C(=O)Nc1ccc(F)cc1` | -41.63 |
| `C[C@@H]1CN([C@@H](C)CO)C(=O)c2cc(NC(=O)NC3CCCCC3)ccc2O[C@@H](C)CCCCO[C@@H]1CN(C)Cc1ccc(C(F)(F)F)cc1` | -25.13 |
| `COc1cccc(S(=O)(=O)N(C)C[C@@H]2Oc3cc(C4=CCCCC4)ccc3S(=O)(=O)N([C@H](C)CO)C[C@@H]2C)c1` | -38.68 |
| `C[C@@H]1CN([C@@H](C)CO)C(=O)c2cc(NS(=O)(=O)c3ccccc3)ccc2O[C@H]1CN(C)Cc1ccc(Cl)c(Cl)c1` | -34.08 |
| `C[C@@H]1CN([C@@H](C)CO)C(=O)c2cccc(NC(=O)NC3CCCCC3)c2O[C@@H]1CN(C)S(=O)(=O)c1ccc(Cl)cc1` | -34.01 |
| `CC(C)CC#Cc1ccc2c(c1)O[C@H](CN(C)Cc1cncnc1)[C@H](C)CN([C@@H](C)CO)S2(=O)=O` | -37.51 |
| `C[C@@H]1CN([C@H](C)CO)C(=O)c2cc(C3=CCCC3)cnc2O[C@H]1CN(C)C(=O)c1ccc(F)cc1` | -7.971 |
| `CC(C)NC(=O)N(C)C[C@@H]1Oc2cc(C#Cc3cccc(F)c3)ccc2S(=O)(=O)N([C@@H](C)CO)C[C@H]1C` | -36.27 |
| `O=C(c1ccccc1)N1CC(=O)N2[C@@H](CO)[C@@H](c3ccc(C#CCC4CCCC4)cc3)[C@@H]2C1` | -51.31 |
| `OC[C@H]1[C@@H](c2ccc(-c3ccc(F)cc3)cc2)[C@H]2CN(CCC(F)(F)F)CCCCN21` | -62.33 |
| `O=C(C[C@H]1CC[C@@H]2[C@H](COC[C@@H](O)CN2Cc2ccc(Cl)cc2)O1)Nc1nccs1` | -24 |
| `CCCN1[C@H](C(=O)N[C@H](C)c2ccccc2)[C@@H](CO)[C@@H]2Cn3c(ccc(-c4ccc(F)cc4)c3=O)[C@@H]21` | -25.89 |
| `C/C=C/c1ccc2c(c1)O[C@H](CN(C)C(=O)Nc1ccc(C(F)(F)F)cc1)[C@@H](C)CN([C@H](C)CO)S2(=O)=O` | -66.97 |
| `CCS(=O)(=O)N1CCC2(CC1)CN(C(=O)Nc1cccc(F)c1)[C@@H](CO)c1c2c2ccc(OC)cc2n1C` | -23.95 |
| `O=C(c1cccc(F)c1)N1CC[C@@H]2[C@@H](CO)Nc3ccc(-c4ccc(F)cc4)cc3[C@@H]21` | -27.45 |
| `C[C@H]1CN([C@@H](C)CO)C(=O)c2cc(C3=CCCC3)cnc2O[C@H]1CN(C)C(=O)Nc1ccc(C(F)(F)F)cc1` | -36.98 |
| `COc1ccccc1S(=O)(=O)N1C[C@@H]2N[C@H](C1)C2c1ccc(-c2cccc(F)c2)cc1` (stereo not given in full) | -74.94 |
| `O=C(C[C@@H]1CC[C@@H]2[C@H](COC[C@@H](O)CN2Cc2ccc(Oc3ccccc3)cc2)O1)N1CCN(c2ccccc2)CC1` | -39.4 |
| `CNC[C@@H]1Oc2ncc(-c3cc4ccccc4o3)cc2C(=O)N([C@H](C)CO)C[C@@H]1C` | -11.78 |
| `CCCNC(=O)N1[C@@H](C#N)[C@H](c2ccc(C3=CCCCC3)cc2)[C@@H]1CO` | -30.8 |
| `C[C@@H]1CN([C@@H](C)CO)C(=O)c2cc(NS(=O)(=O)c3ccccc3)ccc2O[C@@H]1CN(C)Cc1ccc(Cl)c(Cl)c1` | -50.24 |
| `COCc1cn([C@H]2C[C@@H]3O[C@@H](CO)CC[C@@H]3O[C@@H]2CCc2ccc(-c3ccc(OC)cc3)cc2)nn1` | -43.6 |
| `Cc1ccc(S(=O)(=O)N(C)C[C@@H]2OCCCC[C@@H](C)Oc3ccc(NS(=O)(=O)c4ccc(F)cc4)cc3C(=O)N([C@@H](C)CO)C[C@H]2C)cc1` | -41.63 |
| `C[C@@H]1CCCCO[C@H](CN(C)Cc2ccc3c(c2)OCO3)[C@@H](C)CN([C@@H](C)CO)C(=O)c2cc(NC(=O)NC3CCCCC3)ccc2O1` | -61.83 |
| `COc1cccc(C#Cc2ccc([C@H]3[C@H]4CN(C(=O)c5ccncc5)CC(=O)N4[C@H]3CO)cc2)c1` | -52.67 |
| `C[C@H]1CN([C@@H](C)CO)S(=O)(=O)c2ccc(/C=C/c3ccccc3)cc2O[C@H]1CN(C)C(=O)NC1CCCC1` | -67.97 |
| `O=C(C1CCCCC1)N1CC2(C1)[C@@H](c1ccccc1)[C@@H](CO)N2CC1CCCC1` | -27.44 |
| `CC(C)CC#Cc1ccc2c(c1)O[C@H](CN(C)C(=O)c1ccccc1)[C@@H](C)CN([C@H](C)CO)S2(=O)=O` | -64.64 |
| `COc1ccc([Si](C)(C)[C@@H]2[C@@H](CCO)O[C@]3(C(=O)N4c5c(cc(OC)cc53)C(C)=CC4(C)C)[C@H]2C)cc1` | -79.14 |

Some entries from above, unchanged:

- C[C@@H]1CN([C@@H](C)CO)C(=O)c2cc(NC(=O)NC3CCCCC3)ccc2O[C@@H](C)CCCCO[C@@H]1CN(C)Cc1ccc(C(F)(F)F)cc1 | activity change (Venus) -25.13%
- C[C@H]1CN([C@@H](C)CO)C(=O)c2cccc(NC(=O)Nc3ccc(C(F)(F)F)cc3)c2O[C@H]1CN(C)C(=O)Nc1ccc(F)cc1 | activity change (Venus) -41.63%
- CC(C)CC#Cc1ccc2c(c1)O[C@H](CN(C)C(=O)c1ccccc1)[C@@H](C)CN([C@H](C)CO)S2(=O)=O | activity change (Venus) -64.64%
- O=C(c1ccccc1)N1CC(=O)N2[C@@H](CO)[C@@H](c3ccc(C#CCC4CCCC4)cc3)[C@@H]2C1 | activity change (Venus) -51.31%